Source: PubChem BioAssay AID493014 (National Center for Advancing Translational Sciences (NCATS), 2011)
Some of the results follow. These are further read-outs of the screen, such as a control signal, another cell line or another target. No call is given for them. Most of these compounds were active or inconclusive in the main read-out, so they are no random draw. Words in brackets tell the shape of the fitted curve; partial curves, single points and poor fits give uncertain potencies.

Experiment: qHTS Assay to Find Inhibitors of Chronic Active B-Cell Receptor Signaling
Conditions: ABC-DLBCL IkBa-CBG/CBR reporter, luminescence ratio (green luciferase fused to IkBa over red control in TMD8 lymphoma cells), 4 h
Method in brief: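 TMD8 ABC-DLBCL cells carrying doxycycline-inducible green luciferase fused to IkappaBalpha plus unfused red luciferase were exposed to compounds (up to 46 uM) for 4 hrs at 37C. Activity came from the overlap-corrected green/red luminescence ratio.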

[1] = measured here: CBR red luminescence, cell number
[2] = measured here: IkBa-CBG green luminescence

Row | Structure (SMILES) | AC50 [1] | AC50 [2]
1 | O=C(Nc1cc2c(cc1Br)OCCO2)c1ccc(=O)[nH]c1 | 23.1 µM [rising, single point] | 
2 | C/C=C/C(=O)OCC(=O)Nc1cc([N+](=O)[O-])ccc1Cl | 2.06 µM [rising, full curve, poor fit] | 
3 | C=CCc1cccc(/C=N/NC(=O)c2ccccc2Br)c1O | 1.12 µM [falling, full curve] | 
4 | COc1ccc(F)c(-c2nc(CN3CCC(c4ccccc4)CC3)c(C)o2)c1 | 10 µM [falling, partial curve, poor fit] | 
5 | Cc1ccc2cc3c(N)c(C(=O)Nc4c(C)[nH]c(=O)[nH]c4=O)sc3nc2c1 | 0.651 µM [falling, partial curve, poor fit] | 
6 | CC(=O)c1cnc2c(-c3ccccc3)c(C)nn2c1C | 10.3 µM [rising, partial curve, poor fit] | 
7 | CCCCSc1nsc(NC(C)=O)n1 | 1.26 µM [rising, partial curve, poor fit] | 
8 | CCOC(=O)c1sc(Nc2nc3ccc(OC)cc3s2)cc1C | 29.1 µM [falling, single point] | 
9 | CN(Cc1ccc(F)cc1)C(=O)COc1ccccc1-c1ccccc1 | 6.51 µM [falling, single point] | 
10 | CCOC(=O)c1nnc(-c2cccs2)nc1Oc1ccc(Cl)cc1 | 9.2 µM [falling, partial curve, poor fit] | 
11 | Cc1cc(NC(=O)c2cccc(S(=O)(=O)N(C)C)c2)n(-c2ccccn2)n1 | 6.51 µM [falling, single point] | 
12 | CC(C)(C)c1ccc(C(=O)O)c(C(=O)c2ccc(C(=O)O)cc2)c1 | 3.16 µM [rising, single point] | 
13 | COC(=O)c1ccc(N2CCOCC2)c(NC(=O)Nc2cccc(OC)c2)c1 | 23.1 µM [falling, single point] | 
14 | COc1ccc(NC(=O)CN(C)S(=O)(=O)c2ccc3c(c2)OCCO3)c2ncccc12 | 31.6 µM [rising, single point] | 
15 | COc1ccccc1C(=O)Nc1sc(C(=O)N2CCCC2)c(C)c1C#N | 7.08 µM [falling, partial curve, poor fit] | 
16 | C=C(C)CNC(=S)N/N=C/c1c(F)cccc1F | 25.1 µM [falling, single point] | 25.1 µM [falling, single point]
17 | COc1ccc2c(c1)C(C1=C(O)CC(C)(C)CC1=O)C1=C(CC(C)(C)CC1=O)O2 (centres undefined) | 9.2 µM [rising, single point] | 
18 | CCc1ccccc1N(CC)C(=O)CCc1nc(-c2ccc(C)cc2)no1 | 12.6 µM [falling, partial curve, poor fit] | 
19 | Cn1c(=O)c2cc(S(=O)(=O)NC(C(=O)Nc3cccnc3)c3ccccc3)ccc2n(C)c1=O (centres undefined) | 2.91 µM [falling, single point] | 
20 | CSc1ccc(-c2nc(O)c3cnccn23)cc1 | 0.562 µM [rising, full curve, poor fit] | 
21 | Cc1ccc(C(=O)C2CCN(CC(=O)NC3CCCCC3)CC2)cc1 | 0.708 µM [rising, full curve, poor fit] | 

Some of the entries above in another layout.
COc1ccc(F)c(-c2nc(CN3CCC(c4ccccc4)CC3)c(C)o2)c1
  AC50 [1]: 10 µM [falling, partial curve, poor fit]
CCOC(=O)c1sc(Nc2nc3ccc(OC)cc3s2)cc1C
  AC50 [1]: 29.1 µM [falling, single point]

Continued:

Row | Structure (SMILES) | AC50 [1] | AC50 [2]
22 | CCN(CC)C(=O)[C@H]1C[C@H](CC(=O)NCCc2ccccn2)C(=O)N2CCc3c([nH]c4ccc(Cl)cc34)[C@]12C | 20.6 µM [rising, single point] | 
23 | O=C(O)c1ccc(Nc2nc3ccccc3nc2NS(=O)(=O)c2cccs2)cc1 | 0.891 µM [falling, full curve] | 
24 | COc1ccc(O)c(C(=O)c2cnn(-c3ccccc3)c2)c1 | 4.47 µM [falling, partial curve] | 
25 | CCOc1ccc(NC(=O)CN2CCN(CC(=O)Nc3cc(OC)cc(OC)c3)CC2)cc1 | 13 µM [rising, partial curve, poor fit] | 16.4 µM [falling, single point]
26 | NC(=O)c1ccc(NC(=O)c2cnc3ccccc3n2)cc1 | 6.31 µM [rising, single point] | 
27 | Cc1ccc(Cl)c2sc(NC(=O)C3CC3)nc12 | 35.5 µM [falling, partial curve, poor fit] | 
28 | Fc1cccc(Nc2ncnc3sc4c(c23)CCC4)c1 | 1.64 µM [rising, full curve] | 
29 | CCCCCCCc1nc2nc(C)c(Br)c(=O)n2[nH]1 | 3.16 µM [falling, full curve] | 
30 | NC(=S)NN=C1c2ccccc2-c2ccccc21 | 20 µM [falling, single point] | 11.2 µM [falling, partial curve]
31 | COc1ccc(/C=C2\N=C3CCCN3C2=O)cc1 | 3.55 µM [rising, full curve, poor fit] | 
32 | CCOC(=O)C(C)Sc1nnc(NC(=O)c2ccc3c(c2)OCO3)s1 (centres undefined) | 35.5 µM [falling, single point] | 
33 | Cc1cccnc1NC(=S)Nc1ccc(Cl)c(Cl)c1 | 12.6 µM [rising, partial curve] | 
34 | COc1ccc2cc(S(=O)(=O)N3CCCCC3)ccc2c1S(=O)(=O)N1CCCCC1 | 6.51 µM [rising, single point] | 
35 | C=CCn1c(COc2cccc3ccc(C)nc23)nnc1SCC(N)=O | 2.91 µM [falling, full curve, poor fit] | 
36 | Cc1ccc(C)c(NC(=O)c2cc(S(=O)(=O)N3CCCCCC3)ccc2F)c1 | 14.1 µM [rising, partial curve, poor fit] | 
37 | CC(C)c1[nH]nc2c1C(c1cccnc1)C(C#N)=C(N)O2 (centres undefined) | 12.6 µM [falling, partial curve, poor fit] | 
38 | O=S(=O)(c1ccc(Cl)cc1Br)N1CCCCC1 | 6.51 µM [rising, single point] | 
39 | C/C(=C\C(=O)O)C12CC3CC(CC(C3)C1)C2 | 25.9 µM [falling, single point] | 
40 | Cn1cccc1C(=O)NC(=O)CSc1cccc[n+]1[O-] |  | 25.1 µM [falling, single point]
41 | Cn1c(=N)n(CC(=O)c2ccc(Cl)c(Cl)c2)c2ccccc21 | 35.5 µM [falling, partial curve, poor fit] | 
